PubChem BioAssay AID686938, Drosophila RNAi Screening Center, 2013

Purpose: 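Looking for CRAC channel components and the factors controlling them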 (primary screen)
Cells: Drosophila S2R+ cells
Reagent: long dsRNA against Drosophila genes, about 0.25 µg dsRNA per well, roughly 10,000 cells
Timing: 5 days of knock-down before the calcium assay
Treatment: thapsigargin (SERCA pump blocker) to empty calcium stores; entry signal taken 4 min after adding it
Detection: 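Duplicate raw fluo-4 intensities per well from a plate reader, at rest and four minutes after thapsigargin emptied calcium stores; entry-to-rest ratio filled for only some wells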
Direction: calcium entry signal: higher = stronger calcium signal after store depletion; entry to resting ratio: higher = more calcium entry relative to resting level; resting calcium signal: higher = higher resting calcium signal
Hit rule: 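Called when the plate z-score of the entry-to-rest ratio, mean of duplicates, falls below −3; wells with low overall dye signal (Fmax z below −2) or more than five off-targets excluded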
Calls: active = strongly reduced calcium entry; inactive = no strong reduction
In all, the deposit lists about 23,000 reagents; this is a random part of those that have a named target and a result. Over the whole deposit, 75 (0.33%) are marked active. 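Raw plate signals without normalisation; calls rest on plate z-scores that were not deposited; ratio present for only 364 wells.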 A number with no mark means an inactive call. Names joined by + are all predicted targets of the reagent. Reagent sequences are not shown. The record does not give: the dose of the treatment.

gene knocked down	DRSC id	calcium entry signal, replicate 1 (fluorescence units)	calcium entry signal, replicate 2 (fluorescence units)	entry to resting ratio	resting calcium signal, replicate 1 (fluorescence units)	resting calcium signal, replicate 2 (fluorescence units)
Mal-A3 (GeneID 35826)	DRSC07462	3.92e7	4.22e7		1.86e7	1.87e7
Ptx1 (GeneID 43664)	DRSC16804	4.18e7	5.91e7		2.18e7	2.45e7
Nmdar2 (GeneID 31107)	DRSC18183	3.97e7	4.38e7	2.1	1.91e7	1.70e7
Nmdar2 (GeneID 31107)	DRSC18511	3.59e7	4.48e7	2	1.84e7	1.83e7
Nmdar2 (GeneID 31107)	DRSC18569	3.50e7	4.53e7	2	1.73e7	1.90e7
CG9926 (GeneID 41700)	DRSC16582	3.18e7	3.67e7		1.42e7	1.64e7
ftz (GeneID 40834)	DRSC12626	4.21e7	3.63e7		1.63e7	1.68e7
CG3108 (GeneID 31506)	DRSC18280	2.82e7	2.94e7		1.38e7	1.37e7
CG13001 (GeneID 32684)	DRSC19520	4.16e7	4.29e7		1.98e7	1.90e7
CG13001 (GeneID 32684)	DRSC22443	3.87e7	3.89e7		1.88e7	1.88e7
mino (GeneID 43350)	DRSC14132	3.99e7	4.68e7		1.88e7	2.09e7
CG4455 (GeneID 34975)	DRSC01983	3.30e7	3.31e7		1.58e7	1.67e7
CG4455 (GeneID 34975)	DRSC21684	3.78e7	3.21e7		2.33e7	1.51e7
CG43673 + CG43672	DRSC19452	4.01e7	3.50e7		2.03e7	1.74e7
CG43673 + CG43672	DRSC20108	3.53e7	3.50e7		1.88e7	1.64e7
Kdm4B (GeneID 318918)	DRSC06862	4.40e7	3.35e7		2.01e7	1.58e7
Mdr49 (GeneID 36428)	DRSC07466	3.99e7	3.64e7		1.85e7	1.83e7
CG3281 (GeneID 41445)	DRSC15470	3.11e7	5.32e7		1.26e7	2.16e7
CG7990 (GeneID 32909)	DRSC19296	2.95e7	3.98e7		1.54e7	1.70e7
CG7990 (GeneID 32909)	DRSC20069	5.90e7	6.31e7		2.76e7	2.56e7
CG7990 (GeneID 32909)	DRSC23195	4.63e7	2.44e7		2.25e7	1.06e7
CG33271 (GeneID 2768972)	DRSC10583	3.42e7	4.94e7		2.08e7	2.65e7
CG6931 (GeneID 39363)	DRSC10750	4.55e7	5.32e7		2.76e7	3.38e7
Ilp5 (GeneID 2768992)	DRSC08998	2.95e7	4.65e7		1.46e7	2.18e7
Toll-7 (GeneID 37272)	DRSC07563	5.71e7	2.67e7		2.54e7	1.33e7
YL-1 (GeneID 34516)	DRSC02765	4.12e7	4.76e7		1.94e7	2.23e7
CG10681 (GeneID 39425)	DRSC09777	4.62e7	4.13e7		3.13e7	1.81e7
CG10681 (GeneID 39425)	DRSC21484	2.79e7	3.80e7		1.28e7	1.69e7
CG12395 (GeneID 32571)	DRSC19453	3.67e7	2.70e7		2.13e7	1.34e7
Rala (GeneID 31332)	DRSC18703	1.69e7	2.98e7		8.70e6	1.25e7
AIF (GeneID 33390)	DRSC00696	3.79e7			1.75e7	
Sec61beta (GeneID 46080)	DRSC07548	3.02e7	2.89e7		1.94e7	1.53e7
Sec61beta (GeneID 46080)	DRSC21512	3.73e7	3.22e7		2.22e7	2.13e7
CG4250 (GeneID 37599)	DRSC04455	3.87e7	3.56e7		1.91e7	1.66e7
IP3K1 (GeneID 34300)	DRSC02734	5.62e7			2.48e7	
GCC88 (GeneID 41350)	DRSC14264	3.24e7	2.72e7		1.66e7	1.47e7
CG14130 (GeneID 39335)	DRSC10134	2.87e7	4.69e7		1.46e7	1.81e7
lncRNA:CR43314 (GeneID 12798160)	DRSC01216	4.30e7	5.57e7		1.91e7	2.49e7
lncRNA:CR43314 (GeneID 12798160)	DRSC21354	3.41e7	3.75e7		1.88e7	1.73e7
CG18542 + CG32939	DRSC15342	3.31e7	4.55e7		1.47e7	2.07e7

Part of the list above, set out differently.
{"gene knocked down":"Sec61beta (GeneID 46080)","DRSC id":"DRSC21512","calcium entry signal, replicate 1 (fluorescence units)":3.73e7,"calcium entry signal, replicate 2 (fluorescence units)":3.22e7,"resting calcium signal, replicate 1 (fluorescence units)":2.22e7,"resting calcium signal, replicate 2 (fluorescence units)":2.13e7}
{"gene knocked down":"CG4250 (GeneID 37599)","DRSC id":"DRSC04455","calcium entry signal, replicate 1 (fluorescence units)":3.87e7,"calcium entry signal, replicate 2 (fluorescence units)":3.56e7,"resting calcium signal, replicate 1 (fluorescence units)":1.91e7,"resting calcium signal, replicate 2 (fluorescence units)":1.66e7}
{"gene knocked down":"IP3K1 (GeneID 34300)","DRSC id":"DRSC02734","calcium entry signal, replicate 1 (fluorescence units)":5.62e7,"resting calcium signal, replicate 1 (fluorescence units)":2.48e7}
{"gene knocked down":"GCC88 (GeneID 41350)","DRSC id":"DRSC14264","calcium entry signal, replicate 1 (fluorescence units)":3.24e7,"calcium entry signal, replicate 2 (fluorescence units)":2.72e7,"resting calcium signal, replicate 1 (fluorescence units)":1.66e7,"resting calcium signal, replicate 2 (fluorescence units)":1.47e7}
{"gene knocked down":"CG14130 (GeneID 39335)","DRSC id":"DRSC10134","calcium entry signal, replicate 1 (fluorescence units)":2.87e7,"calcium entry signal, replicate 2 (fluorescence units)":4.69e7,"resting calcium signal, replicate 1 (fluorescence units)":1.46e7,"resting calcium signal, replicate 2 (fluorescence units)":1.81e7}
{"gene knocked down":"lncRNA:CR43314 (GeneID 12798160)","DRSC id":"DRSC01216","calcium entry signal, replicate 1 (fluorescence units)":4.30e7,"calcium entry signal, replicate 2 (fluorescence units)":5.57e7,"resting calcium signal, replicate 1 (fluorescence units)":1.91e7,"resting calcium signal, replicate 2 (fluorescence units)":2.49e7}
